This passage reports binding results from article PMC8576004.

Substitutions are numbered along the chain they refer to. In names and notes the source's numbering stands. These are yes or no findings as the source states them, for the method shown. In cells and extracts the contact can be indirect. Some entries that bind do so weakly or less than the wild type. For some assays here: Tags and fused reporters may be left off the sequences shown.

The target in assay [1] is single-molecule FRET probe insert-1 (human) (UniProt P40818). Nature of the assay: FRET or BRET; single-molecule FRET probes in cell lysates: EYFP on the WW-like domain and ECFP inside the USP domain of ONE chain; excitation 433 nm, emission 460-570 nm; trypsinised lysate as negative control; FRET ratio EYFP/ECFP; the paper speculates that the interaction is intramolecular; 100 μM R18 reduced the FRET signal of FRIP8.

In another assay the target is FRIP8^F1014A (human) (UniProt P40818). The description is as above.
Assay [2] concerns the target FRIP8^P955A:L1063A (human) (UniProt P40818). The description is as above.
Assay [3] concerns the target single-molecule FRET probe insert-3 (human) (UniProt P40818). The assay is described as above.
Assay [4] concerns the target single-molecule FRET probe insert-4 (human) (UniProt P40818). Described as above.
The target in assay [5] is single-molecule FRET probe insert-5 (human) (UniProt P40818). The description is as above.
Assay [6] addresses FLAG-tagged USP8 (wild type) (human) (UniProt P40818). Nature of the assay: co-IP; co-immunoprecipitation of FLAG- and myc-tagged USP8s (Supplementary Fig. 3f).
Assay [7] has as its target FLAG-tagged USP8^Δ645–684 (human) (UniProt P40818). Described as above.

B1: single-molecule FRET probe insert-1 (domain or fragment, UniProt P40818 645-1118)
chain: GRIVPGLPSGWAKFLDPITGTFRYYHSPTNTVHMYPPEMAPSSAPPSTPPTHKAKPQIPAERDREPSKLKRSYSSPDITQAIQEEEKRKPTVTPTVNRENKPTCYPKAEISRLSASQIRNLNPVFGGSGPALTGLRNLGNTCYMNSILQCLCNAPHLADYFNRNCYQDDINRSNLLGHKGEVAEEFGIIMKALWTGQYRYISPKDFKITIGKINDQFAGYSQQDSQELLLFLMDGLHEDLNKADNRKRYKEENNDHLDDFKAAEHAWQKHKQLNESIIVALFQGQFKSTVQCLTCHKKSRTFEAFMYLSLPLASTSKCTLQDCLRLFSKEEKLTDNNRFYCSHCRARRDSLKKIEIWKLPPVLLVHLKRFSYDGRWKQKLQTSVDFPLENLDLSQYVIGPKNNLKKYNLFSVSNHYGGLDGGHYTAYCKNAARQRWFKFDDHEVSDISVSSVKSSAAYILFYTSLGPRVTDVAT
As to B1, the binding result in assay [1] was “binds”.

B2: FRIP8^F1014A (domain or fragment, UniProt P40818 645-1118)
chain: B1 chain with F370A
Turning to B2, in the assay with FRIP8^F1014A (human), the binding result is reported as “binds”.

B3: FRIP8^P955A:L1063A (domain or fragment, UniProt P40818 645-1118)
chain: B1 chain with P311A, L419A
With B3, the binding result in assay [2] was “binds”.

B4: single-molecule FRET probe insert-3 (domain or fragment, UniProt P40818 645-1118)
chain: B1 chain
As to B4, the binding result in assay [3] is on record as “binds”.

B5: single-molecule FRET probe insert-4 (domain or fragment, UniProt P40818 645-1118)
chain: B1 chain
As to B5, the binding result in assay [4] was “binds”.

B6: single-molecule FRET probe insert-5 (domain or fragment, UniProt P40818 645-1118)
chain: B1 chain
With B6, the binding result in assay [5] is “binds”.

B7: FLAG-tagged USP8 (wild type) (enzyme, UniProt P40818 1-1118)
chain: MPAVASVPKELYLSSSLKDLNKKTEVKPEKISTKSYVHSALKIFKTAEECRLDRDEERAYVLYMKYVTVYNLIKKRPDFKQQQDYFHSILGPGNIKKAVEEAERLSESLKLRYEEAEVRKKLEEKDRQEEAQRLQQKRQETGREDGGTLAKGSLENVLDSKDKTQKSNGEKNEKCETKEKGAITAKELYTMMTDKNISLIIMDARRMQDYQDSCILHSLSVPEEAISPGVTASWIEAHLPDDSKDTWKKRGNVEYVVLLDWFSSAKDLQIGTTLRSLKDALFKWESKTVLRNEPLVLEGGYENWLLCYPQYTTNAKVTPPPRRQNEEVSISLDFTYPSLEESIPSKPAAQTPPASIEVDENIELISGQNERMGPLNISTPVEPVAASKSDVSPIIQPVPSIKNVPQIDRTKKPAVKLPEEHRIKSESTNHEQQSPQSGKVIPDRSTKPVVFSPTLMLTDEEKARIHAETALLMEKNKQEKELRERQQEEQKEKLRKEEQEQKAKKKQEAEENEITEKQQKAKEEMEKKESEQAKKEDKETSAKRGKEITGVKRQSKSEHETSDAKKSVEDRGKRCPTPEIQKKSTGDVPHTSVTGDSGSGKPFKIKGQPESGILRTGTFREDTDDTERNKAQREPLTRARSEEMGRIVPGLPSGWAKFLDPITGTFRYYHSPTNTVHMYPPEMAPSSAPPSTPPTHKAKPQIPAERDREPSKLKRSYSSPDITQAIQEEEKRKPTVTPTVNRENKPTCYPKAEISRLSASQIRNLNPVFGGSGPALTGLRNLGNTCYMNSILQCLCNAPHLADYFNRNCYQDDINRSNLLGHKGEVAEEFGIIMKALWTGQYRYISPKDFKITIGKINDQFAGYSQQDSQELLLFLMDGLHEDLNKADNRKRYKEENNDHLDDFKAAEHAWQKHKQLNESIIVALFQGQFKSTVQCLTCHKKSRTFEAFMYLSLPLASTSKCTLQDCLRLFSKEEKLTDNNRFYCSHCRARRDSLKKIEIWKLPPVLLVHLKRFSYDGRWKQKLQTSVDFPLENLDLSQYVIGPKNNLKKYNLFSVSNHYGGLDGGHYTAYCKNAARQRWFKFDDHEVSDISVSSVKSSAAYILFYTSLGPRVTDVAT
For the molecule B7, the binding result in assay [6] is on record as “binds”.

B8: FLAG-tagged USP8^Δ645–684 (enzyme, UniProt P40818)
chain: MPAVASVPKELYLSSSLKDLNKKTEVKPEKISTKSYVHSALKIFKTAEECRLDRDEERAYVLYMKYVTVYNLIKKRPDFKQQQDYFHSILGPGNIKKAVEEAERLSESLKLRYEEAEVRKKLEEKDRQEEAQRLQQKRQETGREDGGTLAKGSLENVLDSKDKTQKSNGEKNEKCETKEKGAITAKELYTMMTDKNISLIIMDARRMQDYQDSCILHSLSVPEEAISPGVTASWIEAHLPDDSKDTWKKRGNVEYVVLLDWFSSAKDLQIGTTLRSLKDALFKWESKTVLRNEPLVLEGGYENWLLCYPQYTTNAKVTPPPRRQNEEVSISLDFTYPSLEESIPSKPAAQTPPASIEVDENIELISGQNERMGPLNISTPVEPVAASKSDVSPIIQPVPSIKNVPQIDRTKKPAVKLPEEHRIKSESTNHEQQSPQSGKVIPDRSTKPVVFSPTLMLTDEEKARIHAETALLMEKNKQEKELRERQQEEQKEKLRKEEQEQKAKKKQEAEENEITEKQQKAKEEMEKKESEQAKKEDKETSAKRGKEITGVKRQSKSEHETSDAKKSVEDRGKRCPTPEIQKKSTGDVPHTSVTGDSGSGKPFKIKGQPESGILRTGTFREDTDDTERNKAQREPLTRARSEEMPSSAPPSTPPTHKAKPQIPAERDREPSKLKRSYSSPDITQAIQEEEKRKPTVTPTVNRENKPTCYPKAEISRLSASQIRNLNPVFGGSGPALTGLRNLGNTCYMNSILQCLCNAPHLADYFNRNCYQDDINRSNLLGHKGEVAEEFGIIMKALWTGQYRYISPKDFKITIGKINDQFAGYSQQDSQELLLFLMDGLHEDLNKADNRKRYKEENNDHLDDFKAAEHAWQKHKQLNESIIVALFQGQFKSTVQCLTCHKKSRTFEAFMYLSLPLASTSKCTLQDCLRLFSKEEKLTDNNRFYCSHCRARRDSLKKIEIWKLPPVLLVHLKRFSYDGRWKQKLQTSVDFPLENLDLSQYVIGPKNNLKKYNLFSVSNHYGGLDGGHYTAYCKNAARQRWFKFDDHEVSDISVSSVKSSAAYILFYTSLGPRVTDVAT
B8: the binding result in assay [7] is on record as “binds”.
